Here are results for one substance from paper doi:10.1101/2023.11.28.569054.

This test addresses T1, GFP-EMC2 (human) (UniProt Q15006).
T1 sequence: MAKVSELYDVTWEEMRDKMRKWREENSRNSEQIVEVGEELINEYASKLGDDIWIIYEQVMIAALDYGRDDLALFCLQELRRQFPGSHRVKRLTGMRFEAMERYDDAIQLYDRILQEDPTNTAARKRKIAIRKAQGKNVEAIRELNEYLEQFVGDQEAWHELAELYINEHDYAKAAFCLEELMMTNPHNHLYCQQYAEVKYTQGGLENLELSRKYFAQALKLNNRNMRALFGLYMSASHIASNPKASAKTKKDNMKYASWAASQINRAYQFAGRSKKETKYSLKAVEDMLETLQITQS
As to the kind of experiment: co-IP.

These are yes or no findings as the source states them, for the method shown. Binding seen in cells or lysates may run through a third protein. Binding can be weak; no strength is given. Tags and fused reporters may be left off the sequences shown.

As to back of Sec61 (BOS) complex, the binding entry is “binds”.
